Results as given in article PMC8745066.
These are yes or no findings as the source states them, for the method shown. Binding seen in cells or lysates may run through a third protein. Some results given as binding are weak or reduced against the parent protein; the word gives no strength.

Chains of the proteins cited; added tags and fusions are not shown.
UniProt Q9GZV5: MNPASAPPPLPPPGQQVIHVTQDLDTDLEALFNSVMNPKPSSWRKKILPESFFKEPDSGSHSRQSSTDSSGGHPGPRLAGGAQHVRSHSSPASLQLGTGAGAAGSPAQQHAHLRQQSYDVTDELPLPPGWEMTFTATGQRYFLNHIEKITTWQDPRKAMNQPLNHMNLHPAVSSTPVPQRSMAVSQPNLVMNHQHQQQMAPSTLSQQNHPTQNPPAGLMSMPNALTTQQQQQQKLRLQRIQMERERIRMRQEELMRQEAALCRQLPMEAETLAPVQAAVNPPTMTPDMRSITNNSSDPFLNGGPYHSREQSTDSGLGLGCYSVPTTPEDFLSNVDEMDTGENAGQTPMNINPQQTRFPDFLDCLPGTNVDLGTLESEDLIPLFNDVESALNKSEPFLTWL

Target: T1, Claudin 6 (CLDN6) (UniProt P56747)
T1 sequence: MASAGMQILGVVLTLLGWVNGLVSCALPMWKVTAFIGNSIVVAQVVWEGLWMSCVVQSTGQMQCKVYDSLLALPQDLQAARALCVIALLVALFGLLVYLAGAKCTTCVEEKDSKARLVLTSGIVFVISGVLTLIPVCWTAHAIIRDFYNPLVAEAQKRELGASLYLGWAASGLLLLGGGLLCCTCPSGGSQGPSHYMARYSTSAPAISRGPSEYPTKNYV
Assay: co-IP; IP with anti-CLDN6 antibody (E2S5M, Cell Signaling Technology) from MCF-7/CLDN6 and MDA-MB-231/CLDN6 cells; TAZ detected in the precipitate; procedure as in ref. 45

With “transcriptional co-activator with PDZ-binding motif (TAZ) (from UniProt Q9GZV5 1-400)” the binding was “binds”.
